From the supplement of paper PMC7666118
This is one part of the list.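 The calls were made as follows: active = dose-dependent thermal stabilisation significant by F-test of dose-response against flat model at 10% FDR; inactive = not significant.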

By UniProt entry, the sequences of proteins in these tests, tags left out. Where a name states a change or a piece, a line headed by the entry shows the natural chain unless it says otherwise.
UniProt P78559: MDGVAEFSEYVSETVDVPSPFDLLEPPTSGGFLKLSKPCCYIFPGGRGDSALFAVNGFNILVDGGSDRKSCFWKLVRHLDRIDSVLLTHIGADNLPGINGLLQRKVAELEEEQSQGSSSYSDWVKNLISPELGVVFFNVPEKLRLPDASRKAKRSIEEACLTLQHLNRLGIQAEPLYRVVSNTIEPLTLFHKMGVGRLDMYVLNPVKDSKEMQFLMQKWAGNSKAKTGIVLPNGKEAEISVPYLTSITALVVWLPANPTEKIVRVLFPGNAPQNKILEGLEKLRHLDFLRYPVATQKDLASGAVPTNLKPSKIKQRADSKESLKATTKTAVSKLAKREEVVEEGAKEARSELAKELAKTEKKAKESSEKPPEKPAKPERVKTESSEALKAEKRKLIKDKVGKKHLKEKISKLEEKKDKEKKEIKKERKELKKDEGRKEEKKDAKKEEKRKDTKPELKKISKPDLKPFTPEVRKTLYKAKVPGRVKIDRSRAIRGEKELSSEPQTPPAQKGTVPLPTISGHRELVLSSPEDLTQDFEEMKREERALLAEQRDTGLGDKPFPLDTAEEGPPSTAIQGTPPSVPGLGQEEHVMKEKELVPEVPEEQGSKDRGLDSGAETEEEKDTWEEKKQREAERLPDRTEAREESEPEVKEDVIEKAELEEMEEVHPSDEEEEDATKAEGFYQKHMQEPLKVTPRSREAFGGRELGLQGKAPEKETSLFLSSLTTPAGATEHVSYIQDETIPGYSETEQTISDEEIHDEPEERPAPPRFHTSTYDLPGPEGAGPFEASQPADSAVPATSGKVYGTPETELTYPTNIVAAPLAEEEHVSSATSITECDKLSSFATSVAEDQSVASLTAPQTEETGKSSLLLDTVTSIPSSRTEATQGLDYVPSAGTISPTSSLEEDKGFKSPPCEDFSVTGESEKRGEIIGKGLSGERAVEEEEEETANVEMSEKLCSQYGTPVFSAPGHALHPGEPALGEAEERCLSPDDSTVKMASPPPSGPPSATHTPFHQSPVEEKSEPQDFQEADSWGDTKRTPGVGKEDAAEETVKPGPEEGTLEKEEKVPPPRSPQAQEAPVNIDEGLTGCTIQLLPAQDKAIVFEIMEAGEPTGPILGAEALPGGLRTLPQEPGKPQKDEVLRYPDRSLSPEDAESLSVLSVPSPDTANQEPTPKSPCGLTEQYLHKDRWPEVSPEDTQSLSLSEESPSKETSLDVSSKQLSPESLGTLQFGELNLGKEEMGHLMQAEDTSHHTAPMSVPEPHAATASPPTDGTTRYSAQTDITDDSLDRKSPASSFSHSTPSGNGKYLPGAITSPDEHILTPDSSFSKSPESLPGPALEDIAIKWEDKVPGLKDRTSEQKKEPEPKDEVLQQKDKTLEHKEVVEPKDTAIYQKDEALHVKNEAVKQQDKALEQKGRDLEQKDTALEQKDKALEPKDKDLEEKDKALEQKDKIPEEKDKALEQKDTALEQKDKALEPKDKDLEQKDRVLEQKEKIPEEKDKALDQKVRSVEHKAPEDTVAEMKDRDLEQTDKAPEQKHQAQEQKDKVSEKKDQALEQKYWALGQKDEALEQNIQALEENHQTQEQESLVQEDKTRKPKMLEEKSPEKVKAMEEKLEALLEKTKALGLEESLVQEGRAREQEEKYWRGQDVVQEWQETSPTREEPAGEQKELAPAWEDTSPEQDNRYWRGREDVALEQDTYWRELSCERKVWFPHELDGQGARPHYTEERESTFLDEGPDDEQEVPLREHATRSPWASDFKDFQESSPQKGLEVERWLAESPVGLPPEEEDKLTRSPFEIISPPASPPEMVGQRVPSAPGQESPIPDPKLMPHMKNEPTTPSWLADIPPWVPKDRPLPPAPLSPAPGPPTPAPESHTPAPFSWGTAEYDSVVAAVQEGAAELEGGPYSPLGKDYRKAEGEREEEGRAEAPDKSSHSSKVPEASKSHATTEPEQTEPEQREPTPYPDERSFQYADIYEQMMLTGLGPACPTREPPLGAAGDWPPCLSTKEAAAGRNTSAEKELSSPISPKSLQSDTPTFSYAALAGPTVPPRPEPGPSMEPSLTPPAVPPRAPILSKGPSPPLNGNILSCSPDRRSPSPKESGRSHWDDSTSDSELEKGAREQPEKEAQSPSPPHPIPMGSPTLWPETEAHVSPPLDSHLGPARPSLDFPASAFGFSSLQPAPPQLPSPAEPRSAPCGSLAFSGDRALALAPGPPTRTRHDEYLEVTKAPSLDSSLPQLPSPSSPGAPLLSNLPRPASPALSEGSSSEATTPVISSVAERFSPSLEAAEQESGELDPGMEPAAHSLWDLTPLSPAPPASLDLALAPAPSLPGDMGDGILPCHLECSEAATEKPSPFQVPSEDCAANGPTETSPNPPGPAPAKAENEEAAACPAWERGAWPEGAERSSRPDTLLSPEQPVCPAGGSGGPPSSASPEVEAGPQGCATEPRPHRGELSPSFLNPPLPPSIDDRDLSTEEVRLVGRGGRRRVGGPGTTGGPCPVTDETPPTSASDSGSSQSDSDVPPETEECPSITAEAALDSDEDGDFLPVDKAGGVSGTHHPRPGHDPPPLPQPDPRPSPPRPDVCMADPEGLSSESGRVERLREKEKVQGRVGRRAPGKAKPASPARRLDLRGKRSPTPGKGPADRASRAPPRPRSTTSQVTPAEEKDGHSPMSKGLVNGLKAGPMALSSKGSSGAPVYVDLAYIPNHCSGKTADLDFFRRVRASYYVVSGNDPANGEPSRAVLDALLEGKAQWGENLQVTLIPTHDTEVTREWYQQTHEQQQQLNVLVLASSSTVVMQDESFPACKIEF
UniProt Q7L9L4: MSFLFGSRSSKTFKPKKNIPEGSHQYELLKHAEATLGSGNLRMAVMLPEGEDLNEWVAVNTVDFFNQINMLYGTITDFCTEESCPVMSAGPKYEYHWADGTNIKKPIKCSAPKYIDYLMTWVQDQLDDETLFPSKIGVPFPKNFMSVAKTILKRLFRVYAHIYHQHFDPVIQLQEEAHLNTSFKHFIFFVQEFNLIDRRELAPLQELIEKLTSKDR
UniProt P46013: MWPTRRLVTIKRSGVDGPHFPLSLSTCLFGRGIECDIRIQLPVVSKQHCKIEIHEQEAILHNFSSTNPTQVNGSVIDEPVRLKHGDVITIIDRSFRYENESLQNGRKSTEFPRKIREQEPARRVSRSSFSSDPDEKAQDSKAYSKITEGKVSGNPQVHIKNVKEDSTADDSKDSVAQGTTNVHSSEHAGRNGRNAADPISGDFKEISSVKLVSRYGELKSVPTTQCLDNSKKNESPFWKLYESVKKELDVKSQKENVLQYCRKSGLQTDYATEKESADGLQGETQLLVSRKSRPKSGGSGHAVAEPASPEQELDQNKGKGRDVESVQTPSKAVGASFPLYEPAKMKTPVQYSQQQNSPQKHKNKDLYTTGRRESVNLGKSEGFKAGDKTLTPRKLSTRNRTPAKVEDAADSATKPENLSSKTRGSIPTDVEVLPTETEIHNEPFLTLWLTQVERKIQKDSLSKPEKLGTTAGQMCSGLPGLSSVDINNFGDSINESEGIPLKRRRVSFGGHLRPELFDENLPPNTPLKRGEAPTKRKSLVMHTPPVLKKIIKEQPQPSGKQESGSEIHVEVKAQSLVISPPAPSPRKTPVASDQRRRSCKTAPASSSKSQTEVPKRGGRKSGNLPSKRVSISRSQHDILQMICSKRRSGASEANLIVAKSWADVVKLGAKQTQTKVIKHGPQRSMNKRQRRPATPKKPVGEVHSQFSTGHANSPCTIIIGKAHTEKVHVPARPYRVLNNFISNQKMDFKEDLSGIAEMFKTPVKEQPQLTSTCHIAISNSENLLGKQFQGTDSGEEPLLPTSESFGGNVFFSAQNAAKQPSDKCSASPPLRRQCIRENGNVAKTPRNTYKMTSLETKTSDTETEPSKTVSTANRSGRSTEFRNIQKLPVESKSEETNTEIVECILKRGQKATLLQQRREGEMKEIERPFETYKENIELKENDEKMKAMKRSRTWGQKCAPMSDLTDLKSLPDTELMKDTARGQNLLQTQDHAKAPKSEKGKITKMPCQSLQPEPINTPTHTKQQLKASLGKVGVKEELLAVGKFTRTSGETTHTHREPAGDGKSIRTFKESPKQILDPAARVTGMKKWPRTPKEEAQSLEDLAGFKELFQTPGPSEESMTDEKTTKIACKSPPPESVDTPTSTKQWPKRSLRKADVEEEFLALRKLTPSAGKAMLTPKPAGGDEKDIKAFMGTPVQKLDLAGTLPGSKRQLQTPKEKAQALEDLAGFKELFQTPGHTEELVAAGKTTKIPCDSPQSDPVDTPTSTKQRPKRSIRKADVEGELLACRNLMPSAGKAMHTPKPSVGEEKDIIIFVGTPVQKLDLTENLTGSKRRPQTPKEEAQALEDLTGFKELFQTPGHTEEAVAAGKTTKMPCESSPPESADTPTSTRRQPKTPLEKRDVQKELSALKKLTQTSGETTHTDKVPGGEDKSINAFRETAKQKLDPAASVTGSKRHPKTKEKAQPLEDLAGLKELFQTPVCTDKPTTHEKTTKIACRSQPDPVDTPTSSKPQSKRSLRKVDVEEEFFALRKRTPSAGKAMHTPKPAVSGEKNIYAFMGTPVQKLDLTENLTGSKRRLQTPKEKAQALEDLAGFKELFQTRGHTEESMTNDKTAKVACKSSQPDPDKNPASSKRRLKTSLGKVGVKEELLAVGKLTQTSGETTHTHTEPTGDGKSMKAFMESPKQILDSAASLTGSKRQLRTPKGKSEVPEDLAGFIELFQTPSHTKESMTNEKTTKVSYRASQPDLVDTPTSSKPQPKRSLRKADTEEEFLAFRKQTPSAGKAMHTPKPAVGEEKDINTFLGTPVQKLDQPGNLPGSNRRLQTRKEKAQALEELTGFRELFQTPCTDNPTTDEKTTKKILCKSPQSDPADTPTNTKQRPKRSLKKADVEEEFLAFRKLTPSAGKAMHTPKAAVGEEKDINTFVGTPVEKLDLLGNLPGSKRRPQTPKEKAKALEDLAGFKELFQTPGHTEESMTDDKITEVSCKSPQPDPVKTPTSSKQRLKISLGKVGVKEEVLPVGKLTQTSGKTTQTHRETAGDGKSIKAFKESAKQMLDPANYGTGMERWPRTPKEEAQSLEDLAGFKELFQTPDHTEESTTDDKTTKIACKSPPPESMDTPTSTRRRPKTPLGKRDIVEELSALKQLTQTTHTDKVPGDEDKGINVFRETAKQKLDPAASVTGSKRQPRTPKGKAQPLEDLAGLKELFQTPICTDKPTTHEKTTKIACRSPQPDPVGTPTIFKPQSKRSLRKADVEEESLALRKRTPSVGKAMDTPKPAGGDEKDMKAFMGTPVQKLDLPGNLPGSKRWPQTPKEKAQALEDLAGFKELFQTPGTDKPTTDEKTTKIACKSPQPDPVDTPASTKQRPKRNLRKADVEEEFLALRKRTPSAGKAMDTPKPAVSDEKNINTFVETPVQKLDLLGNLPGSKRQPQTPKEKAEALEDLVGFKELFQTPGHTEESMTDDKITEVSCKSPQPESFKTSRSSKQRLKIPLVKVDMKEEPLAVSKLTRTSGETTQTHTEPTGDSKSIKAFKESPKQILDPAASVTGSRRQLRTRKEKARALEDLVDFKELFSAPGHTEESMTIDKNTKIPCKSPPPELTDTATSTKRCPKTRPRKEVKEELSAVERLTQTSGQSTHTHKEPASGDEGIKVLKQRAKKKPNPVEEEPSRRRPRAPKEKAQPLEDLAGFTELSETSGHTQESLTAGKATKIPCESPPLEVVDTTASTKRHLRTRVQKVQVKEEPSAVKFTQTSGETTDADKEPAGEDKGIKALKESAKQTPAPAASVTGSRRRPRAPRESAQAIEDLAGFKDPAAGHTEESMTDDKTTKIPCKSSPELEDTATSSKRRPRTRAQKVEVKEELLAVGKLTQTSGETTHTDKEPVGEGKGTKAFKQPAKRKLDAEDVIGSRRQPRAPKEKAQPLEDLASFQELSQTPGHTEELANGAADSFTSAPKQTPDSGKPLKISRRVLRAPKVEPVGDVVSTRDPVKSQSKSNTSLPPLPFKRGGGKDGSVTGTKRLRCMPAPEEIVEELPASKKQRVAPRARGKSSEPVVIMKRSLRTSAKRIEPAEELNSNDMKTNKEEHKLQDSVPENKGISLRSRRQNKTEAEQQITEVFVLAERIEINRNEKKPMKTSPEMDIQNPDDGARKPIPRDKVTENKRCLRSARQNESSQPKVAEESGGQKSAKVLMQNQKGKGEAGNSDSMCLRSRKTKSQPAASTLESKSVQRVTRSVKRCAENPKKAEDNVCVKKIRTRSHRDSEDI
UniProt A4D2B0: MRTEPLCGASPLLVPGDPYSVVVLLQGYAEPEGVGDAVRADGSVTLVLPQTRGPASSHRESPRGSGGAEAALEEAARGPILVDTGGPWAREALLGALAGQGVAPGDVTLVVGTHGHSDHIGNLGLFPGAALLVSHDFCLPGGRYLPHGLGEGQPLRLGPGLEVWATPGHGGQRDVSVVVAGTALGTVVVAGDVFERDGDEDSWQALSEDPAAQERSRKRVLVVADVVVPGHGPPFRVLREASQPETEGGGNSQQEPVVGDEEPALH

compound: Nc1nc2c(ncn2[C@@H]2O[C@H](COP(=O)(O)OP(=O)(O)OP(=O)(O)O)[C@@H](O)[C@H]2O)c(=O)[nH]1; assay: dose-dependent thermal stabilisation call (2D-TPP, DLPTP, 10% FDR) (binary (1 = stabilised)); higher = stabilised by the compound; conditions: system: Jurkat gel-filtered lysate; concentration range 1-500 µM
Procedure: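 2D thermal proteome profiling in gel-filtered Jurkat E6.1 lysate (2 mg/ml) treated with NaGTP (0, 1, 10, 100, 500 uM) for 10 min at room temperature, then heated 3 min at one of 12 temperatures (42-63.9 C). Soluble protein was quantified by TMT10 MS. The value is the DLPTP call of the paper: dose-dependent thermal stabilisation over all temperatures at 10% FDR (F-test of a dose-response against a flat model); one experiment, one call per tested protein.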

Target	dose-dependent thermal stabilisation call
MOCS2 (UniProt O96033)	inactive: 0
LYPLA1 (UniProt O75608)	inactive: 0
LUC7L2 (UniProt Q9Y383)	active: 1
MAP1A (UniProt P78559)	inactive: 0
MAP3K2 (UniProt Q9Y2U5)	active: 1
MTHFSD (UniProt Q2M296)	active: 1
MOB1B (UniProt Q7L9L4)	inactive: 0
MAP2K2 (UniProt P36507)	active: 1
LUZP1 (UniProt Q86V48)	inactive: 0
MKRN3 (UniProt Q13064)	inactive: 0
MAP7D1 (UniProt Q3KQU3)	inactive: 0
MMS22L (UniProt Q6ZRQ5)	inactive: 0
MYBL2 (UniProt P10244)	inactive: 0
LSM5 (UniProt Q9Y4Y9)	inactive: 0
MDM4 (UniProt O15151)	inactive: 0
MIS12 (UniProt Q9H081)	inactive: 0
MRPS27 (UniProt Q92552)	active: 1
MZB1 (UniProt Q8WU39)	inactive: 0
MKNK1 (UniProt Q9BUB5)	inactive: 0
MRE11 (UniProt P49959)	active: 1

Target	dose-dependent thermal stabilisation call
MAD2L2 (UniProt Q9UI95)	inactive: 0
MPP1 (UniProt Q00013)	active: 1
MKL2 (UniProt Q9ULH7)	active: 1
MED17 (UniProt Q9NVC6)	active: 1
MED15 (UniProt Q96RN5)	inactive: 0
METTL3 (UniProt Q86U44)	inactive: 0
MAT1A (UniProt Q00266)	inactive: 0
MOB4 (UniProt Q9Y3A3)	inactive: 0
MRPS36 (UniProt P82909)	inactive: 0
MED28 (UniProt Q9H204)	inactive: 0
N4BP1 (UniProt O75113)	inactive: 0
MRI1 (UniProt Q9BV20)	inactive: 0
MYB (UniProt P10242)	inactive: 0
MCM7 (UniProt P33993)	inactive: 0
MKI67 (UniProt P46013)	inactive: 0
MAPKAPK3 (UniProt Q16644)	inactive: 0
MYCBP (UniProt Q99417)	inactive: 0
LSM14B (UniProt Q9BX40)	inactive: 0
MKL1 (UniProt Q969V6)	inactive: 0
MBLAC1 (UniProt A4D2B0)	inactive: 0

Shown field by field: part of the list above.
MDM4 (UniProt O15151)
  dose-dependent thermal stabilisation call: inactive: 0
MIS12 (UniProt Q9H081)
  dose-dependent thermal stabilisation call: inactive: 0
MRPS27 (UniProt Q92552)
  dose-dependent thermal stabilisation call: active: 1
